This assay concerns the target Drosophila full-length NompC (Drosophila) (UniProt E0A9E1). As to the kind of experiment: optical tweezers (single-molecule force spectroscopy); single nanodisc-embedded NompC complex tethered between two beads by DNA handles (SpyTag-SpyCatcher at the N terminus of one subunit, biotin-PE/streptavidin at the nanodisc), pulled from one ARD at 10 nm/s; 20 mM bicine pH 8.5, 300 mM …; stiffness compared with NompC-Δ12; both purified.

Amino acid sequences for entries named in this document (tags omitted).
UniProt E0A9E1: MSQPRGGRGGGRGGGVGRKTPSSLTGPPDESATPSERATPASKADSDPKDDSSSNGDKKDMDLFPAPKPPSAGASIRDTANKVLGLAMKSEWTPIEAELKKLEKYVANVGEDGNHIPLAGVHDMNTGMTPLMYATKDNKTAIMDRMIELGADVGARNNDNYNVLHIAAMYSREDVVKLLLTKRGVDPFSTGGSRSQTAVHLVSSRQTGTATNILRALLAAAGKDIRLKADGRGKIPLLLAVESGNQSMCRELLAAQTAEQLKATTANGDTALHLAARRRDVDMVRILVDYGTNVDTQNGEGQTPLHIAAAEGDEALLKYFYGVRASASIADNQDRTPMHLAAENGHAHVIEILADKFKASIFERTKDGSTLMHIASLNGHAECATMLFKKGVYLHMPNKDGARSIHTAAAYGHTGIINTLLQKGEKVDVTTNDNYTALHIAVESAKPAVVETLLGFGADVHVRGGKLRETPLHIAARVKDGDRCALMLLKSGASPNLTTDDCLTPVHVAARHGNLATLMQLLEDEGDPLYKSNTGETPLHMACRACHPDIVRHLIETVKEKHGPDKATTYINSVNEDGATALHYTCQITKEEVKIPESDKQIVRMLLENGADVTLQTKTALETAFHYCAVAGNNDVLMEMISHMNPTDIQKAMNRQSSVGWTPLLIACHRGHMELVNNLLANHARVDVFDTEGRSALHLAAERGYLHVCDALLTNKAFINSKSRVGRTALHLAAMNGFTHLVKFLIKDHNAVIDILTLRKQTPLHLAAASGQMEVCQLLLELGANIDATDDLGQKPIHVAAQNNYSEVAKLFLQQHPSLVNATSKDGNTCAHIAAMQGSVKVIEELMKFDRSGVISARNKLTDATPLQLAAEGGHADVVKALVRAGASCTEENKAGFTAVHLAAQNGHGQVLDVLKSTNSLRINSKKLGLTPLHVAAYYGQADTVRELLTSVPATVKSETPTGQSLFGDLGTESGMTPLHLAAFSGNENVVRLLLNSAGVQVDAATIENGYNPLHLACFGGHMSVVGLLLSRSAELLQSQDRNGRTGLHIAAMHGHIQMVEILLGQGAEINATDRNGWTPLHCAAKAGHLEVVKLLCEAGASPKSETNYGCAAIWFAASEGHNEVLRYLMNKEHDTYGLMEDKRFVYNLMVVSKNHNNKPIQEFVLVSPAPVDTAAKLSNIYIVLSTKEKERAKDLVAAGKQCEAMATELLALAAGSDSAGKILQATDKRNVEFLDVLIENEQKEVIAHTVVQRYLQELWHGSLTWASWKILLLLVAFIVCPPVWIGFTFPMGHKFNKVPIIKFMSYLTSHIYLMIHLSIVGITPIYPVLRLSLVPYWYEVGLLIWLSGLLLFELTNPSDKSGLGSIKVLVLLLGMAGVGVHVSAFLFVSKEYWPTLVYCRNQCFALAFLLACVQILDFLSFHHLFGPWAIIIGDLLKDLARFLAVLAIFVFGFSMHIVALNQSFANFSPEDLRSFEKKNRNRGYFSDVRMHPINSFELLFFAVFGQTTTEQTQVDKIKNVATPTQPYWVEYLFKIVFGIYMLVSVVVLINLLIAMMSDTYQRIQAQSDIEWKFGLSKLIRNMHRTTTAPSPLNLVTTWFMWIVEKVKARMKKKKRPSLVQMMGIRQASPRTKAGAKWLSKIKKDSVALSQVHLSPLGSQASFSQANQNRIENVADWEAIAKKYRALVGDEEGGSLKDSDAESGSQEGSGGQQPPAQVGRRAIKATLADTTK

These are yes or no findings as the source states them, for the method shown. Some entries that bind do so weakly or less than the wild type.

With “Drosophila full-length NompC (from UniProt E0A9E1 1-1732) (complex)”, the binding entry is given as “binds”.

Source of the values: PMC13041742, “Nonlinear stiffness of NompC gating spring and its implication in mechanotransduction” (Science Advances, 2026).
